PubChem BioAssay AID1224830 – NIAID | 2016
Assay: 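Regulators of TLR4 signalling towards TNF-alpha in macrophage-like cells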 (primary screen). System: human THP-1 monocytic leukaemia cells, TNF dual-luciferase reporter clone, PMA-differentiated to macrophage-like cells. Reagents: siRNA pool against human genes, 50 nM. Timing: LPS for 4 h, given about 3 days after siRNA transfection. Treatment: bacterial LPS (TLR4 ligand), 10 ng/ml. Detection: 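TNF firefly reporter luminescence divided by renilla, normalised to the plate median, then turned into a robust z-score for each replicate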. Reading the numbers: TNF reporter robust z-score: higher = stronger TNF reporter response to LPS. Active means: 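a well is active when its z-score exceeds 2.8 or falls below -1.5; control wells carry no call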.
The whole screen tested about 18,000 reagents; this is a random part of them. Over the whole deposit, about 2,900 (16%) were called active. 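Calls are made per well; low scores hint the gene aids the LPS response, high scores that it dampens it.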 Repeated entries: four replicate wells of each siRNA pool. No sequences are given here.

gene knocked down | TNF reporter robust z-score | Call
FGD4 | -0.31 | inactive
FGD4 | -0.15 | inactive
FGD4 | -0.44 | inactive
FGD4 | 0.24 | inactive
HTR3D | -0.76 | inactive
HTR3D | -0.03 | inactive
HTR3D | 0.12 | inactive
GCH1 | 1.27 | inactive
GCH1 | 0.4 | inactive
GCH1 | -0.11 | inactive
GCH1 | 0.44 | inactive
STUB1 | -1.3 | inactive
STUB1 | -1.4 | inactive
STUB1 | -1.52 | active
STUB1 | -0.17 | inactive
KCNE5 | 0.94 | inactive
KCNE5 | 0.08 | inactive
KCNE5 | 0.11 | inactive
KCNE5 | 2.11 | inactive
INTS8 | 2.33 | inactive
INTS8 | 0.83 | inactive
INTS8 | 1.36 | inactive
INTS8 | 3.54 | active
SIPA1L2 | -0.89 | inactive
SIPA1L2 | -0.6 | inactive
SIPA1L2 | -0.41 | inactive
SIPA1L2 | 0.23 | inactive
DIP2A | 0.45 | inactive
DIP2A | 0.62 | inactive
DIP2A | 0.57 | inactive
DIP2A | 0.49 | inactive
UGT1A6 | 2.47 | inactive
UGT1A6 | 0.8 | inactive
UGT1A6 | 0.57 | inactive
UGT1A6 | 0.48 | inactive
POU4F3 | 1.78 | inactive
POU4F3 | 1.01 | inactive
POU4F3 | 1.28 | inactive
POU4F3 | 0.24 | inactive
H2BW1 | -0.97 | inactive
H2BW1 | -1.1 | inactive
H2BW1 | 1.57 | inactive
H2BW1 | -0.99 | inactive
OPRM1 | 1.72 | inactive
OPRM1 | -0.95 | inactive
OPRM1 | -1.72 | active
OPRM1 | -0.9 | inactive
H2BC4 | 0.83 | inactive
H2BC4 | -0.22 | inactive
H2BC4 | -1.18 | inactive
H2BC4 | -1.02 | inactive
TEX101 | -0.13 | inactive
TEX101 | 1.48 | inactive
TEX101 | -0.28 | inactive
TEX101 | -0.14 | inactive
CASQ2 | 0.73 | inactive
CASQ2 | -0.12 | inactive
CASQ2 | 0.59 | inactive
CASQ2 | -0.16 | inactive
OXSM | 0.21 | inactive
OXSM | 0.09 | inactive
OXSM | -0.44 | inactive
OXSM | 0.82 | inactive
AKAP5 | -0.42 | inactive
AKAP5 | -0.35 | inactive
AKAP5 | -0.3 | inactive
AKAP5 | 0.56 | inactive
DNAJB9 | 1.05 | inactive
DNAJB9 | 0.79 | inactive
DNAJB9 | 0.48 | inactive
DNAJB9 | 0.29 | inactive
TAP2 | 0.77 | inactive
TAP2 | -0.15 | inactive
TAP2 | 0.16 | inactive
TAP2 | 1.25 | inactive

8 entries from above, ordered by “TNF reporter robust z-score”, descending.
gene knocked down | TNF reporter robust z-score | Call
POU4F3 | 1.78 | inactive
H2BW1 | 1.57 | inactive
POU4F3 | 1.28 | inactive
POU4F3 | 1.01 | inactive
UGT1A6 | 0.48 | inactive
POU4F3 | 0.24 | inactive
H2BW1 | -0.97 | inactive
H2BW1 | -1.1 | inactive
